The list shows a part of the results.

Chains of the proteins cited; added tags and fusions are not shown.
UniProt Q0JBA9, entry or part of it: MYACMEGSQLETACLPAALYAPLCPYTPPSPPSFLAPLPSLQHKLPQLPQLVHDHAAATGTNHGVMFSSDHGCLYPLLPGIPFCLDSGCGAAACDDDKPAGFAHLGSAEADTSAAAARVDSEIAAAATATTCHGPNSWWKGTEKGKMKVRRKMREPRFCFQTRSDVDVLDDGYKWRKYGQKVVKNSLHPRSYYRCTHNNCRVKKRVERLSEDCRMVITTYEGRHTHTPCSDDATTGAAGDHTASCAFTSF

The assay concerns the target OsWRKY34 (Oryza sativa, UniProt Q0JBA9 1-250). In words: protein-binding microarray (RPBM); PBS, 2% BSA, 51.3 ng/ul salmon testes DNA, 50 uM zinc acetate, 200 nM TF, 25 C, 1 h; high values mean tight binding. To be noted: protein: recombinant; tags: N-terminal polyhistidine and DsRed monomer fusion (pET32a); label: CyDye5-dUTP incorporated in the synthesized complementary strand; 3' TTTTT single-stranded linker to array surface; dsDNA, one strand shown. An outline of the steps: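 Using Ni–NTA, transcription factors fused N-terminally to polyhistidine and DsRed were purified after expression in E. coli BL21-CodonPlus. These were incubated at 200 nM with a blocked, double-stranded custom Agilent array for 1 h at 25 °C in a buffer containing 50 µM zinc acetate, and the array was washed. The binding signal is per-feature fluorescence intensity (arbitrary units) on an Axon 4000B scanner.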
Turning to “CCGCGGTGGGGCATGGTGGTGAGGTGGGAGGGAGGGAGCTCGGAGTCACCTAGTGCAG”, the binding signal is 17100 fluorescence intensity (a.u.).

On to “GACTCCTCGGCCACCTCCTTCCGCTGCGCCACCGCCGCCGCGGAGTCACCTAGTGCAG”, for which the binding signal was 9600 fluorescence intensity (a.u.).

Turning to “TAGTTTAGCATTATCGTGTTCTCTCTGGAAGCAGTTCTTCCGGAGTCACCTAGTGCAG”, the binding signal was 9410 fluorescence intensity (a.u.).

As to “CCACCGCCGCCGCTTCCCCGCCCGCCGGCCGCCTACGCCACGGAGTCACCTAGTGCAG”, the binding signal is 8650 fluorescence intensity (a.u.).

Consider “CACTAGTTTGTGAATCTGTTATCTTGTTCCTTTTTTACCTCGGAGTCACCTAGTGCAG”, for which the binding signal is 11200 fluorescence intensity (a.u.).

For the sequence “CTCCGCACAAACACACATATACTCCACATATCCAGCTGCACGGAGTCACCTAGTGCAG”, the binding signal is 8990 fluorescence intensity (a.u.).

As to “CTTCCAGGGCCTCTTCCACACCCCGCCCCAGCACAACCCGCGGAGTCACCTAGTGCAG”, the binding signal is 9690 fluorescence intensity (a.u.).

In the case of “TTGCATATAACTATGTTGTACCTCCTCCGTTTCATATTACCGGAGTCACCTAGTGCAG”, the binding signal is 8460 fluorescence intensity (a.u.).

Take “AGTTATTTGGAGCATTCTTCAGTTCGTCCATCTAGCCTGACGGAGTCACCTAGTGCAG”: the binding signal was 10600 fluorescence intensity (a.u.).

“CCAACAACGCTCCATCTCTCACTTGCCTCAAATGCAACTACGGAGTCACCTAGTGCAG”: the binding signal is 8820 fluorescence intensity (a.u.).

Regarding “GGTATTTTTGCTAGTCAAGTTTTATTATTTTACTTGACAACGGAGTCACCTAGTGCAG”, the binding signal is 9980 fluorescence intensity (a.u.).

Take “TTGGCTTATGAGTTATGTTCTGCCATTTGTACGTATTACACGGAGTCACCTAGTGCAG”: the binding signal is 10500 fluorescence intensity (a.u.).

Take “AGTTAATTAGCACCCCTGTGGCTACCATCGATCTGTCTAACGGAGTCACCTAGTGCAG”: the binding signal was 10800 fluorescence intensity (a.u.).

On to “GTGCTGCCGCGTTCAATTCGCCGCTGCTTGGTCTCGTTTGCGGAGTCACCTAGTGCAG”, for which the binding signal is 8610 fluorescence intensity (a.u.).

As to “CCTCGTCGTCGTCCTCGTCGTTCCGCCGCGGCGGTAGCAACGGAGTCACCTAGTGCAG”, the binding signal was 8090 fluorescence intensity (a.u.).

For “TTGTTGTTTACGTATTTCATATCTCTAAAAATATTTTTTACGGAGTCACCTAGTGCAG”, the binding signal is 10500 fluorescence intensity (a.u.).

As to “CACCACCGCGCCGCCACGCGACAAACCCCGCGGAGGCAGACGGAGTCACCTAGTGCAG”, the binding signal was 8060 fluorescence intensity (a.u.).

As to “AATTAGCTCGATCATCACACTGTATATGTTTGTATGTCCTCGGAGTCACCTAGTGCAG”, the binding signal was 8650 fluorescence intensity (a.u.).

For “CCGCGTCACTGGCTGAGAGCGCCATTAATTCACTCTCGTTCGGAGTCACCTAGTGCAG”, the binding signal was 8410 fluorescence intensity (a.u.).

Turning to “GGGTTTCTTCATGCTCCTTGTCAGCCCATCACTTCTACTACGGAGTCACCTAGTGCAG”, the binding signal is 13200 fluorescence intensity (a.u.).

With “GTAGTGGCTAGGAGCTATATTGGTTGGGGAGGAGCGCCCACGGAGTCACCTAGTGCAG”, the binding signal is 9340 fluorescence intensity (a.u.).

For the sequence “GTCGGGGAGGTCGGGGTCAGGGAGGTCGGGGCCGGTGATGCGGAGTCACCTAGTGCAG”, the binding signal is 18900 fluorescence intensity (a.u.).

With “TATCTATCACCACTTTCTGTACTGCTATTGTTGTTCTTACCGGAGTCACCTAGTGCAG”, the binding signal is 12400 fluorescence intensity (a.u.).

Take “TCACTGATTACAGGCACTCCTCTCCGATCCAACATAATTACGGAGTCACCTAGTGCAG”: the binding signal is 8430 fluorescence intensity (a.u.).

On to “ATTTGTCTCTTGTGCCTTACATGATATATGCATGTTTTTTCGGAGTCACCTAGTGCAG”, for which the binding signal is 12800 fluorescence intensity (a.u.).

With “TAGTGTTAGTTACTACTCCTACAATTTCATTTGTTGCCACCGGAGTCACCTAGTGCAG”, the binding signal is 8650 fluorescence intensity (a.u.).

As to “CACCGCCACGCGTATTTCCGGCCCAAACCAGCCCAACTGCCGGAGTCACCTAGTGCAG”, the binding signal is 9480 fluorescence intensity (a.u.).

Turning to “CTGTTGGCACTTACACAATCACATTCACATTTGGTGTTTTCGGAGTCACCTAGTGCAG”, the binding signal was 8630 fluorescence intensity (a.u.).

Regarding “ACCTCTCATATACCACCATCTCTGCATGCTCAAGAACATCCGGAGTCACCTAGTGCAG”, the binding signal is 8270 fluorescence intensity (a.u.).

As for “AGCCTCATCTTTTTCTTATACTTAAATTTGACTTTTTAATCGGAGTCACCTAGTGCAG”, the binding signal is 10500 fluorescence intensity (a.u.).

Take “TCTCGGCAAGACCCACCACATACCATGTCCTATACGAAAGCGGAGTCACCTAGTGCAG”: the binding signal was 12700 fluorescence intensity (a.u.).

In the case of “ATCAGCCCATATCGATTTTTACTGCTAGTATTTATTTGAGCGGAGTCACCTAGTGCAG”, the binding signal is 8080 fluorescence intensity (a.u.).

Regarding “TTCGTATTACTGCTTGTACTCGATATAAATTTCATAAAAACGGAGTCACCTAGTGCAG”, the binding signal was 9400 fluorescence intensity (a.u.).

With “ACGCAGAATTCTGAGGTGGTTGTTTCTTGGATCGATCCTTCGGAGTCACCTAGTGCAG”, the binding signal is 8180 fluorescence intensity (a.u.).

On to “CCACTTAATTTTCCGAATCTATGGGCTTTGTTGTGCTATACGGAGTCACCTAGTGCAG”, for which the binding signal was 9370 fluorescence intensity (a.u.).

As for “GTACTTCCCACGGCCCATTTTGAAGCCATTAGGCCCAGAACGGAGTCACCTAGTGCAG”, the binding signal was 8060 fluorescence intensity (a.u.).

With “TCGACCTTTTCAGCATTACTAGTTTACTACCTTTTCTTATCGGAGTCACCTAGTGCAG”, the binding signal is 9620 fluorescence intensity (a.u.).

For “AGGCCATCATCACTTTAGTCTTATTTTCGTCACCATCATCCGGAGTCACCTAGTGCAG”, the binding signal was 10300 fluorescence intensity (a.u.).

With “CAGCCGTCCGATCTGTTGATCCAACGACTCAAAAGCGATCCGGAGTCACCTAGTGCAG”, the binding signal is 8400 fluorescence intensity (a.u.).

Take “CCATATCATATTACTCCTACATGTGTACTACATTTATATTCGGAGTCACCTAGTGCAG”: the binding signal was 9480 fluorescence intensity (a.u.).

In the case of “TACATTTGACAAAACGCATGAGGACCTCATCATTGCTTAACGGAGTCACCTAGTGCAG”, the binding signal is 8020 fluorescence intensity (a.u.).

Regarding “GAGCGGTCAAACATATGCTAAAAAGTCAACGGCGTCAAACCGGAGTCACCTAGTGCAG”, the binding signal was 15900 fluorescence intensity (a.u.).
